PubChem BioAssay AID743121 – NCATS | 2013
Purpose: 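Genes whose silencing strengthens cell killing by camptothecin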 (primary screen). Cells: MDA-MB-231 cells, a human breast cancer line. Reagent: single siRNA against human genes, 20 nM siRNA (0.8 pmol per well). Time to read-out: 120 h (drug added 48 h after transfection, read 72 h later). Treatment: camptothecin 20 nM (about EC30) for 72 h; vehicle 0.1% DMSO in parallel plates. Detection: 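CellTiter-Glo ATP signal, scaled to control siRNA as percent viability; sensitisation given as log2 of untreated divided by camptothecin-treated viability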. Reading the numbers: log2 vehicle/camptothecin viability: higher = stronger sensitisation to camptothecin; viability with camptothecin and viability without drug: higher = more viable cells. Active means: 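Active genes have an RSA gene-level p-value below 0.001, computed from the ratios of their separate siRNAs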.
The whole screen tested about 26,000 reagents; below is an unselected part. 167 of all reagents (0.63%) were called active. 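Calls are per gene from RSA p-values that are not deposited; an individual active-marked siRNA can sensitise only weakly.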 The numbers tell different reagents against one gene apart.

| gene | reagent no. | log2 vehicle/camptothecin viability | viability with camptothecin (% of control) | viability without drug (% of control) | Outcome |
| --- | --- | --- | --- | --- | --- |
| WNT3 (GeneID 7473) | 1 | 0.158 | 60.6 | 67.6 | inactive |
| WNT3 (GeneID 7473) | 2 | -0.0043 | 90.8 | 90.5 | inactive |
| WNT3 (GeneID 7473) | 3 | -0.0288 | 54.6 | 53.5 | inactive |
| WNT3 (GeneID 7473) | 4 | -0.137 | 53.6 | 48.8 | inactive |
| RAP2C (GeneID 57826) | 1 | 0.34 | 71.4 | 90.3 | inactive |
| RAP2C (GeneID 57826) | 2 | -0.176 | 99.5 | 88.1 | inactive |
| RAP2C (GeneID 57826) | 3 | 0.0986 | 78 | 83.6 | inactive |
| RAP2C (GeneID 57826) | 4 | -0.255 | 83.6 | 70 | inactive |
| SLC40A1 (GeneID 30061) | 1 | -0.223 | 105 | 90 | inactive |
| SLC40A1 (GeneID 30061) | 2 | -0.386 | 53.2 | 40.7 | inactive |
| SLC40A1 (GeneID 30061) | 3 | -0.51 | 105 | 74 | inactive |
| SLC40A1 (GeneID 30061) | 4 | -0.181 | 58.5 | 51.6 | inactive |
| ASB4 (GeneID 51666) | 1 | 0.356 | 74 | 94.7 | inactive |
| ASB4 (GeneID 51666) | 2 | -0.0477 | 103 | 99.8 | inactive |
| ASB4 (GeneID 51666) | 3 | -0.28 | 72.3 | 59.5 | inactive |
| RPS19 (GeneID 6223) | 1 | 1.53 | 20.5 | 58.9 | inactive |
| RPS19 (GeneID 6223) | 2 | -0.0561 | 79.9 | 76.9 | inactive |
| RPS19 (GeneID 6223) | 3 | -0.0766 | 99.8 | 94.7 | inactive |
| CAP1 (GeneID 10487) | 1 | -0.476 | 83.8 | 60.3 | inactive |
| CAP1 (GeneID 10487) | 2 | -0.234 | 81.5 | 69.3 | inactive |
| CAP1 (GeneID 10487) | 3 | -0.296 | 111 | 90.5 | inactive |
| CAP1 (GeneID 10487) | 4 | -0.101 | 77.9 | 72.6 | inactive |
| PCSK1 (GeneID 5122) | 1 | 0.0891 | 98.4 | 105 | inactive |
| PCSK1 (GeneID 5122) | 2 | -0.0803 | 82.6 | 78.2 | inactive |
| PCSK1 (GeneID 5122) | 3 | -0.106 | 49 | 45.5 | inactive |
| PCSK1 (GeneID 5122) | 4 | -0.399 | 90.8 | 68.9 | inactive |
| OR7D4 (GeneID 125958) | 1 | -0.495 | 84.6 | 60 | inactive |
| OR7D4 (GeneID 125958) | 2 | -0.581 | 78.7 | 52.6 | inactive |
| OR7D4 (GeneID 125958) | 3 | -0.415 | 59.2 | 44.4 | inactive |
| OR7D4 (GeneID 125958) | 4 | -0.0732 | 23.1 | 21.9 | inactive |

Sorted by “log2 vehicle/camptothecin viability” (low to high): 4 of the entries above.
| gene | reagent no. | log2 vehicle/camptothecin viability | viability with camptothecin (% of control) | viability without drug (% of control) | Outcome |
| --- | --- | --- | --- | --- | --- |
| RAP2C (GeneID 57826) | 4 | -0.255 | 83.6 | 70 | inactive |
| SLC40A1 (GeneID 30061) | 1 | -0.223 | 105 | 90 | inactive |
| RAP2C (GeneID 57826) | 2 | -0.176 | 99.5 | 88.1 | inactive |
| RAP2C (GeneID 57826) | 3 | 0.0986 | 78 | 83.6 | inactive |
